The text below walks through data of article PMC7819943, “Rice protein-binding microarrays: a tool to detect cis-acting elements near promoter regions in rice”.

Sequences of proteins named here, by UniProt entry; tags and fusion partners are left off.
UniProt Q0JBA9, entry or part of it: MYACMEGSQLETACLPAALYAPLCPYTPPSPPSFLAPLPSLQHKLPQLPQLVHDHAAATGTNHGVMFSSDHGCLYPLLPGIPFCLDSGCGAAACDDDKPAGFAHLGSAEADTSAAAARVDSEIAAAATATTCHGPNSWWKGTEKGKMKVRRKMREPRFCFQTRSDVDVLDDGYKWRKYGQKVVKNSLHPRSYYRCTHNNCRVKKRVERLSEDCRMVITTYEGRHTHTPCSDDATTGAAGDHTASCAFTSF

Some of the results follow.

The experiment deals with OsWRKY34 (Oryza sativa, UniProt Q0JBA9 1-250). Kind of experiment: protein-binding microarray (RPBM); PBS, 2% BSA, 51.3 ng/ul salmon testes DNA, 50 uM zinc acetate, 200 nM TF, 25 C, 1 h; high values mean tight binding. The settings on record: protein: recombinant; tags: N-terminal polyhistidine and DsRed monomer fusion (pET32a); label: CyDye5-dUTP incorporated in the synthesized complementary strand; 3' TTTTT single-stranded linker to array surface; dsDNA, one strand shown. The gist of the method:
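A custom Agilent array was converted to double-stranded form by primer extension with Cy5-dUTP and blocked with 2% BSA. Protein at 200 nM in PBS with 2% BSA, salmon testes DNA and 50 µM zinc acetate was applied for 1 h at 25 °C, followed by washing. The proteins were polyhistidine–DsRed N-terminal fusions of transcription factors, expressed in E. coli BL21-CodonPlus and Ni–NTA-purified. The binding signal is per-feature fluorescence intensity (arbitrary units) from an Axon 4000B scanner.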
Take “GAACTGCTCCCTCCATCCATAAATATTTGACGCCGTTGACCGGAGTCACCTAGTGCAG”: the binding signal is 11900 fluorescence intensity (a.u.). Under “TGTATTTCGGATGGATACTGTGTGGTGTGTGTGTGGCTGACGGAGTCACCTAGTGCAG” stands 8240 fluorescence intensity (a.u.); under “GGGTGTGAGATTGTGAGAGAATGGTCAAATTTACTTGGTACGGAGTCACCTAGTGCAG”, 11600 fluorescence intensity (a.u.); under “CTTACCTTGCTAACCGCACTGTCGACTCTTGCATGTTTGCCGGAGTCACCTAGTGCAG”, 8660 fluorescence intensity (a.u.).

With “CTCTCCACTCGTACCCCGCATCCTTTCGTTATCTGTACGGCGGAGTCACCTAGTGCAG”, the binding signal is 11300 fluorescence intensity (a.u.). For “AACTACATATTCGGTAATTTATCCCTTACTTTTTTTCACACGGAGTCACCTAGTGCAG”, the binding signal was 10900 fluorescence intensity (a.u.).

Regarding “CCTACGATCTTCAGTTGTGGTGGTTTTTGGCCTTTTGCATCGGAGTCACCTAGTGCAG”, the binding signal was 11100 fluorescence intensity (a.u.). As for “CTCCACATGCCAATTAATTCTCTTATTTTTTTCTCATACTCGGAGTCACCTAGTGCAG”, the binding signal was 9490 fluorescence intensity (a.u.). With “AGTAGTAGTTTTTCTTCCGGTTTCGATGTGTTAAACAAAACGGAGTCACCTAGTGCAG”, the binding signal was 11300 fluorescence intensity (a.u.). Consider “CATCATCACCTCCATCATCATGCTTTGCTTGCTTGCTCTACGGAGTCACCTAGTGCAG”, for which the binding signal was 8840 fluorescence intensity (a.u.). For the sequence “CCGCTTCTTCGTATGTGCCTGTAATATTTATTAATTTATTCGGAGTCACCTAGTGCAG”, the binding signal is 12500 fluorescence intensity (a.u.). Turning to “GGGGTAGGGTTTGTTCGTTTCGAGGTATGATTCTCAGCGCCGGAGTCACCTAGTGCAG”, the binding signal is 10100 fluorescence intensity (a.u.).

In the case of “AGCGACCAAACTGCTGTTCCACGCCGCTAGTTCTTTTCTCCGGAGTCACCTAGTGCAG”, the binding signal was 8970 fluorescence intensity (a.u.). In the case of “TCCTATCCCTACGAGCACTTCCGAAATATTGGACTGACATCGGAGTCACCTAGTGCAG”, the binding signal is 8370 fluorescence intensity (a.u.).

Consider “CTTACAGGCCAAATCATCACACATGATCTCATCCGTCCATCGGAGTCACCTAGTGCAG”, for which the binding signal is 8570 fluorescence intensity (a.u.). Under “GACACTGTTGATCTCCAAATGAATTCTTTTTCTGGCATAACGGAGTCACCTAGTGCAG” stands 8130 fluorescence intensity (a.u.); under “CACTTCAAGATTTTTTCCCTCACTCGGCTCGGCTTAGCCCCGGAGTCACCTAGTGCAG”, 10200 fluorescence intensity (a.u.). As for “TATGCCCAGTTGATATCCATTATATTATATATGGCCTTATCGGAGTCACCTAGTGCAG”, the binding signal was 8210 fluorescence intensity (a.u.).

As to “GTTCTGGGCTGTTTAGTTGGAAAAAAATTTTGCTCCTGTACGGAGTCACCTAGTGCAG”, the binding signal is 8490 fluorescence intensity (a.u.).

“TCTTTATATTATTACTGTTGACCTCGATCCTAGGACGACGCGGAGTCACCTAGTGCAG”: the binding signal was 8360 fluorescence intensity (a.u.). For the sequence “TTGTTCTTTTTCCTATATATTGTTGTTCCTTTTCATGCTTCGGAGTCACCTAGTGCAG”, the binding signal is 9230 fluorescence intensity (a.u.). Regarding “TGGCGTTCTGCTGTACAGGCTCATGTATTACTGCATTTCACGGAGTCACCTAGTGCAG”, the binding signal was 9850 fluorescence intensity (a.u.). For “TATTACAATCACTTCTGTTATTATATTCAGTCTTCTATTTCGGAGTCACCTAGTGCAG” the value was 9110 fluorescence intensity (a.u.); for “TGCAGTCGTCGTCCACCTCCGCCGCCTCTTCGCCACCATCCGGAGTCACCTAGTGCAG”, 9850 fluorescence intensity (a.u.); for “GATTCTTTGCCTGTTCAATCGACCGTGCTTTGTGAGAGCACGGAGTCACCTAGTGCAG”, 9370 fluorescence intensity (a.u.). Regarding “TACTCGTTTGGTTGTAATTTTTTTCCGCGTCTTTTCATCTCGGAGTCACCTAGTGCAG”, the binding signal was 11200 fluorescence intensity (a.u.). Consider “GTGTGTCTGGTCTCTCCTGGTGTTGGTTGCCACACGTATACGGAGTCACCTAGTGCAG”, for which the binding signal was 8360 fluorescence intensity (a.u.). Regarding “CTACTAGTACAGGCTATATCGCTTACTCCCTTTGTCCTAACGGAGTCACCTAGTGCAG”, the binding signal was 8420 fluorescence intensity (a.u.).

Take “ACGGGACGGATGATGGGGTTGGCTGGTGAAAACGGATGGACGGAGTCACCTAGTGCAG”: the binding signal is 9610 fluorescence intensity (a.u.). As for “GCCCAGCCCACCCACCGACAGCCGCTTCGCCATTTCCGCTCGGAGTCACCTAGTGCAG”, the binding signal is 8260 fluorescence intensity (a.u.). In the case of “TACTTTTCATCACTGGTCATACACTAAAACCATCATTAAACGGAGTCACCTAGTGCAG”, the binding signal was 8440 fluorescence intensity (a.u.). Take “AGCTGATTATTGCTTGATACCTAAGCTTTGCTTGCTTTCACGGAGTCACCTAGTGCAG”: the binding signal was 8580 fluorescence intensity (a.u.). Consider “GCGCTTCTGACCACCACGTGCATTTCCATTTCCCGCTGCACGGAGTCACCTAGTGCAG”, for which the binding signal was 12700 fluorescence intensity (a.u.). For “TAGTACTCCACTTGCCCCAGTAGTAACTGCCTGGAAACTTCGGAGTCACCTAGTGCAG”, the binding signal was 8590 fluorescence intensity (a.u.). Consider “GCTCGCTGCTTCGCTTGCTCGCGGGCCTCGCGGCCACATCCGGAGTCACCTAGTGCAG”, for which the binding signal was 9100 fluorescence intensity (a.u.).

On to “ATTGTCATACGATCATCACCACTTTGCCAATTTGCCAGCTCGGAGTCACCTAGTGCAG”, for which the binding signal was 9180 fluorescence intensity (a.u.). On to “CCGCCGATCTCCATCTCCGCCGCCGTCCTGCTGCTTCCGCCGGAGTCACCTAGTGCAG”, for which the binding signal is 8460 fluorescence intensity (a.u.).

“TCCTCCACCGTCCGCCGCTCACTCACTCAGGGCCTCAGGCCGGAGTCACCTAGTGCAG”: the binding signal was 9350 fluorescence intensity (a.u.). On to “GCTAATTATTCTTTCAGTTATAGGCATCGTACCCGTCGACCGGAGTCACCTAGTGCAG”, for which the binding signal was 10700 fluorescence intensity (a.u.). In the case of “CTTCACTATGTTTCAGAGATACCATTTCACCCAGTCCAATCGGAGTCACCTAGTGCAG”, the binding signal is 8030 fluorescence intensity (a.u.). Take “GGCAGCTCGATCTTTAGTCCCGGTTATTTCATCCGGGACTCGGAGTCACCTAGTGCAG”: the binding signal was 8660 fluorescence intensity (a.u.). Under “GCTCATTACCTCGTTTACGAATTCTTCCCCATTTCCTTTGCGGAGTCACCTAGTGCAG” stands 10000 fluorescence intensity (a.u.).
